Test results reported in PMC3104989, “Design, Synthesis, and Characterization of a Highly Effective Hog1 Inhibitor: A Powerful Tool for Analyzing MAP Kinase Signaling in Yeast” (PLoS ONE, 2011).

Target: T1, Hog1 (Saccharomyces cerevisiae, UniProt P32485)
T1 sequence (P32485 2-435): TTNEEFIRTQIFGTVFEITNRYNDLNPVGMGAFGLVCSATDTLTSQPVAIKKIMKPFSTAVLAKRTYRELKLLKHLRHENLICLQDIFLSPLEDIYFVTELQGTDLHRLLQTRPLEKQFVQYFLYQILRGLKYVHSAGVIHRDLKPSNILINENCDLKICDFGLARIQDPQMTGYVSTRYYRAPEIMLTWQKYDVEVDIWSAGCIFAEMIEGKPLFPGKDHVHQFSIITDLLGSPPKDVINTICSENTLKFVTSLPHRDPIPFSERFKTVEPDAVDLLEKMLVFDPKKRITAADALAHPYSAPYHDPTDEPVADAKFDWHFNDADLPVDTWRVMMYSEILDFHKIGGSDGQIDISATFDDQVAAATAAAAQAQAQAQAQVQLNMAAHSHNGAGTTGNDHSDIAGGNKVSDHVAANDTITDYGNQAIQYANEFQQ
Assay: in vitro radiometric kinase assay with biotinylated Sic1 peptide
Assay type: biochemical

C[S+]([O-])c1ccc(-c2nc(-c3ccncc3)c(-c3ccc(F)cc3)[nH]2)cc1 (stereo not shown) [SB203580]
IC50: 49.5 ± 1.6 nM
